According to patent publication US20200277397A1:
These are yes or no findings as the source states them, for the method shown.

Protein sequences, listed by entry. Tags and fused reporters are not part of them. Lines headed by an entry give the natural chain unless they say otherwise; changes in a name come on top.
UniProt Q13641: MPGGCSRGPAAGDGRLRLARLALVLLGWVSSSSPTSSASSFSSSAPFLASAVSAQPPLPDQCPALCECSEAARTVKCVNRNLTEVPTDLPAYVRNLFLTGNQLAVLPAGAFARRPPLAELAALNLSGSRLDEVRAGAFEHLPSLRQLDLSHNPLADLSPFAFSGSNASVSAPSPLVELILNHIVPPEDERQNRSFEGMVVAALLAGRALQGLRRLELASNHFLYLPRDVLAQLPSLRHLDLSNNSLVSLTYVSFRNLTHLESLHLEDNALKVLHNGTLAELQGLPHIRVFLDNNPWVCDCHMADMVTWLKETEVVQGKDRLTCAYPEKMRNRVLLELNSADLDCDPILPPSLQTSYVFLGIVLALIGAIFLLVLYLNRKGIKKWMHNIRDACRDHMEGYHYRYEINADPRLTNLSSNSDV
UniProt Q4R8Y9: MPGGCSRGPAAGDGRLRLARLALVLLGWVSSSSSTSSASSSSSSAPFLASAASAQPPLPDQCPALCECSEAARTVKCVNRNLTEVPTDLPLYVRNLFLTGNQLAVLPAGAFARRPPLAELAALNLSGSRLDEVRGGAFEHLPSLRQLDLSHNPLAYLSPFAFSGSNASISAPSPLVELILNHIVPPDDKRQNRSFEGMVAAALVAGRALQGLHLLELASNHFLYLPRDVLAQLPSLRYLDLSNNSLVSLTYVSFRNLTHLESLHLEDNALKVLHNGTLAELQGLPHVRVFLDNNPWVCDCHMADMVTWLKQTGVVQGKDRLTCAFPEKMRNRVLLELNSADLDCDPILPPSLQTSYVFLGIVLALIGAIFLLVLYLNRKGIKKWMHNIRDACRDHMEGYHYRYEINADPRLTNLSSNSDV

Experiments:
[1] = target: full length human 5T4 (human) (UniProt Q13641); experiment: flow cytometry, HeLa and MDA-MB-231 cells
[2] = target: full length human 5T4 (human) (UniProt Q13641); experiment: flow cytometry, HEK-293 transfected with human 5T4
[3] = target: full length human 5T4 (human) (UniProt Q13641); experiment: flow cytometry, HEK-293 transfected with human 5T4; remark: listed apart in the source
[4] = target: T1, full length chicken 5T4 (chicken); experiment: flow cytometry, HEK-293 transfected with chicken 5T4
T1 sequence: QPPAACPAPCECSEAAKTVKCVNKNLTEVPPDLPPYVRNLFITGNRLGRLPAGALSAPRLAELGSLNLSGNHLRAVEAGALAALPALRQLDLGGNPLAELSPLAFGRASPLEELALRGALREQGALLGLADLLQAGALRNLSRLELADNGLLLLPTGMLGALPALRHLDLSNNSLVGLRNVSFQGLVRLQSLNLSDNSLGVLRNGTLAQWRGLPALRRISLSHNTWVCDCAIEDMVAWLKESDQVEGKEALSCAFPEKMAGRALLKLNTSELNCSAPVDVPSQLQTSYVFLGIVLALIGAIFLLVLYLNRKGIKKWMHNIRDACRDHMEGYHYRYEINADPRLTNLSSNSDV

[5] = target: full length cynomolgus monkey 5T4 (cynomolgus monkey) (UniProt Q4R8Y9); experiment: flow cytometry, HEK-293 transfected with cynomolgus monkey 5T4
[6] = target: full length human 5T4 (human) (UniProt Q13641); experiment: flow cytometry, HeLa cells (left panel), FITC anti-human IgG F(ab')2, MFI FITC
[7] = target: full length human 5T4 (human) (UniProt Q13641); experiment: flow cytometry, MDA-MB-231 cells (right panel), FITC anti-human IgG F(ab')2, MFI FITC
[8] = target: full length human 5T4 (human) (UniProt Q13641); experiment: flow cytometry, HEK-293 cells transfected with full length human 5T4, PE anti-human IgG F(ab')2, MFI PE
[9] = target: T1, full length chicken 5T4 (chicken); experiment: flow cytometry, HEK-293 cells transfected with full length chicken 5T4, PE anti-human IgG F(ab')2, MFI PE
[10] = target: full length human 5T4 (human) (UniProt Q13641); experiment: flow cytometry, HEK-293 cells transfected with full length human 5T4 (left panel), FITC anti-human IgG F(ab')2, MFI FITC
[11] = target: full length cynomolgus monkey 5T4 (cynomolgus monkey) (UniProt Q4R8Y9); experiment: flow cytometry, HEK-293 cells transfected with full length cynomolgus monkey 5T4 (right panel), FITC anti-human IgG F(ab')2, MFI FITC

B1: IgG1-b12-K409R (antibody, V domains shown)
VH: QVQLVQSGAEVKKPGASVKVSCQASGYRFSNFVIHWVRQAPGQRFEWMGWINPYNGNKEFSAKFQDRVTFTADTSANTAYMELRSLRSADTAVYYCARVGPYSWDDSPQDNYYMDVWGKGTTVIVSS
VL: EIVLTQSPGTLSLSPGERATFSCRSSHSIRSRRVAWYQHKPGQAPRLVIHGVSNRASGISDRFSGSGSGTDFTLTITRVEPEDFALYYCQVYGASSYTFGQGTKLERK
[1]
  binding: no binding (tested: 3 µg/mL)
[2]
  binding: no binding (tested: 10 µg/mL)
[3]
  binding: no binding (tested: 3 µg/mL)
[4]
  binding: no binding (tested: 10 µg/mL)
[5]
  binding: no binding (tested: 3 µg/mL)
[6]
  binding: no binding (tested: 3 µg/ml)
[7]
  binding: no binding (tested: 3 µg/ml)
[8]
  binding: no binding (tested: 10 µg/ml)
[9]
  binding: no binding (tested: 10 µg/ml)
[10]
  binding: no binding (tested: 3 µg/ml)
[11]
  binding: no binding (tested: 3 µg/ml)
